Values quoted from earlier work as cited in US20240100001A1, “DENATONIUM SALT FOR USE IN PREVENTING, PREVENTING PROGRESSION AND TREATING FATTY LIVER DISEASES” (AARDVARK THERAPEUTICS INC., priority 2021, published 2024).
For at least one compound, name, drawing or mass did not settle the structure.

Legend:
NASH = conditions: cited from earlier work
[1] = system: patients with NASH and IGT or T2DM; conditions: cited from earlier work
[2] = system: Male C57BL/6J mice fed with the AMLN diet for 50 weeks; conditions: 30 mg/kg, PO, QD for 8 weeks; cited from earlier work
NAFLD/NASH = conditions: agents tried so far; cited from earlier work
[3] = first randomized clinical study

CN(CCOc1ccc(CC2SC(=O)NC2=O)cc1)c1ccccn1 (stereo not shown) [rosiglitazone]
benefit from treatment (NASH; 2-year, open-label follow-up, preliminary report): no significant benefit | IR (NASH; [3]): reduction | necrosis, inflammation, or fibrosis (NASH; [3]): no significant effect | plasma alanine aminotransferase (ALT) levels (NASH; [3]): reduction | steatosis (NASH; [3]): reduction

CCc1ccc(CCOc2ccc(CC3SC(=O)NC3=O)cc2)nc1 (stereo not shown) [pioglitazone]
adipose, hepatic, and muscle IR ([1]; 6-month trial): ameliorated | glycemic control ([1]; 6-month trial): improved | indicators of systemic inflammation (hsCRP, tumor necrosis factor-α, transforming growth factor-β) ([1]; 6-month trial): improved | insulin sensitivity ([1]; 6-month trial): improved | liver histology ([1]; 6-month trial): improved | hepatocellular injury and fibrosis ([1]; another controlled trial of 12 months duration): Improvement | decrease in necroinflammation ([1]; p<0.002): approximately 50% | reduction in fibrosis ([1]; p=0.08): 37%

CC[C@H]1[C@@H](O)[C@@H]2[C@H](CC[C@]3(C)[C@@H]([C@H](C)CCC(=O)O)CC[C@@H]23)[C@@]2(C)CC[C@@H](O)C[C@@H]12 [Obeticholic acid]
histopathological score of hepatic steatosis [2]: reduced | histopathological score of inflammation [2]: reduced | liver TG [2]: reduced total | liver collagen 1a1 content [2]: reduced total | liver galectin-3 content [2]: reduced total | liver total cholesterol content [2]: reduced total | liver weight [2]: reduced liver | plasma total cholesterol [2]: reduced plasma

C[C@H](CCC(=O)O)[C@H]1CC[C@H]2[C@@H]3[C@@H](O)C[C@@H]4C[C@H](O)CC[C@]4(C)[C@H]3CC[C@]12C [ursodeoxycholic acid]
benefit in NAFLD/NASH (NAFLD/NASH): unsuccessfully or with only modest benefit
